# In the supplement of paper PMC4635364:
# Counter-ions that a name gives are not always drawn. Some of the results follow. Repeats in this data set agree poorly, so a single value says little.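 ReNCell VM, a human fetal ventral-midbrain neural progenitor line, was differentiated without mitogens. Blinded raters scored images stained for doublecortin (early neurons) or tyrosine hydroxylase (dopaminergic neurons) against untreated wells (0 = no change). Scores were averaged across repeats and both raters, and compounds averaging 2 or more were selected as hits for retesting.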
# Experiments:
# ReNCell VM [1] = test: neuronal differentiation score (DCX+ cell fraction vs untreated, manual image score) (score (-3 to 3)); higher = more neuronal differentiation; conditions: 2 uM, 2 weeks
# ReNCell VM [2] = test: dopaminergic neuron differentiation score (TH+ cell fraction vs untreated, manual image score) (score (0 to 3)); higher = more TH+ dopaminergic neuron differentiation; conditions: 2 uM, 4 weeks, BDNF 10 ng/ml + GDNF 10 ng/ml
smiles,measurement,setting,value
"Cc1c(C)c2c(c(C)c1O)CC[C@@](C)(CCC[C@H](C)CCC[C@H](C)CCCC(C)C)O2 (racemic) [Tocopherol (R,S)]",neuronal differentiation score,ReNCell VM [1]; library: Phytochemical,inactive: 0
same,dopaminergic neuron differentiation score,ReNCell VM [2]; library: Phytochemical,inactive: 0
COC(=O)C1=C(C)NC(C)=C(C(=O)OCCCN2CCC(c3ccccc3)(c3ccccc3)CC2)[C@@H]1c1cccc([N+](=O)[O-])c1 [(R)-(-)-Niguldipine hydrochloride],neuronal differentiation score,ReNCell VM [1]; library: Tocriscreen,inactive: 0
same,dopaminergic neuron differentiation score,ReNCell VM [2]; library: Tocriscreen,inactive: 0
O=C(/C=C/c1ccc(O)c(O)c1)O[C@@H]1C[C@](O)(C(=O)O)C[C@@H](O)[C@H]1O [Chlorogenic acid],neuronal differentiation score,ReNCell VM [1]; library: Phytochemical,inactive: 0
same,dopaminergic neuron differentiation score,ReNCell VM [2]; library: Phytochemical,inactive: 0
CC(=O)OCC(=O)[C@@]1(O)CC[C@H]2[C@@H]3CCC4=CC(=O)CC[C@]4(C)[C@H]3[C@@H](O)C[C@@]21C [Cortisol acetate],neuronal differentiation score,ReNCell VM [1]; library: Prestwick,inactive: 0
same,dopaminergic neuron differentiation score,ReNCell VM [2]; library: Prestwick,inactive: 0
CCN(CC)C(=S)SSC(=S)N(CC)CC [Disulfiram],neuronal differentiation score,ReNCell VM [1]; library: Prestwick,inactive: 0
same,dopaminergic neuron differentiation score,ReNCell VM [2]; library: Prestwick,inactive: 0
CCOC(=O)C1=C(N)Oc2ccc(Br)cc2C1C(C#N)C(=O)OCC (stereo not given),neuronal differentiation score,ReNCell VM [1]; library: Tocriscreen,inactive: 0
same,dopaminergic neuron differentiation score,ReNCell VM [2]; library: Tocriscreen,active: 3
C=CC1=C(C(=O)O)N2C(=O)[C@@H](NC(=O)/C(=N\O)c3csc(N)n3)[C@H]2SC1 [Cefdinir],neuronal differentiation score,ReNCell VM [1]; library: Prestwick,inactive: 0
same,dopaminergic neuron differentiation score,ReNCell VM [2]; library: Prestwick,inactive: 0
O=C(O)C1CCCNC1 (stereo not given),neuronal differentiation score,ReNCell VM [1]; library: Spectrum,inactive: 0
same,dopaminergic neuron differentiation score,ReNCell VM [2]; library: Spectrum,inactive: 0
O=C(O)C1=C[C@@H](O)[C@@H](O)[C@H](O)C1,neuronal differentiation score,ReNCell VM [1]; library: Spectrum,inactive: 0
same,dopaminergic neuron differentiation score,ReNCell VM [2]; library: Spectrum,inactive: 0
O=C(O)c1nc2cc(Cl)c(Cl)cc2nc1O,neuronal differentiation score,ReNCell VM [1]; library: Spectrum,inactive: 0
same,dopaminergic neuron differentiation score,ReNCell VM [2]; library: Spectrum,inactive: 0
"O=C1C=C(O)c2ccccc2C1=O [2-Hydroxy-[1,4]naphthoquinone]",neuronal differentiation score,ReNCell VM [1]; library: Phytochemical,inactive: 0
same,dopaminergic neuron differentiation score,ReNCell VM [2]; library: Phytochemical,inactive: 0
CCCNCC(O)COc1ccccc1C(=O)CCc1ccccc1 (stereo not given),neuronal differentiation score,ReNCell VM [1]; library: Spectrum,inactive: 0
same,dopaminergic neuron differentiation score,ReNCell VM [2]; library: Spectrum,inactive: 0
Oc1c(I)cc(I)c2cccnc12,neuronal differentiation score,ReNCell VM [1]; library: Spectrum,inactive: 0
same,dopaminergic neuron differentiation score,ReNCell VM [2]; library: Spectrum,inactive: 0
O=c1c(O)c(-c2ccc(O)c(O)c2)oc2cc(O)cc(O)c12,neuronal differentiation score,ReNCell VM [1]; library: Spectrum,inactive: 0
same,dopaminergic neuron differentiation score,ReNCell VM [2]; library: Spectrum,inactive: 0
CC(=O)OCC(=O)[C@@]1(O)CC[C@H]2[C@@H]3CCC4=CC(=O)C=C[C@]4(C)[C@@]3(Cl)[C@@H](Cl)C[C@@]21C,neuronal differentiation score,ReNCell VM [1]; library: Spectrum,inactive: 0
same,dopaminergic neuron differentiation score,ReNCell VM [2]; library: Spectrum,inactive: 0
CNCC[C@@H](Oc1ccc(C(F)(F)F)cc1)c1ccccc1 [R-(-)-Fluoxetine hydrochloride],neuronal differentiation score,ReNCell VM [1]; library: LOPAC,inactive: 0
same,dopaminergic neuron differentiation score,ReNCell VM [2]; library: LOPAC,inactive: 0
CCC[C@@H]1C[C@@H](C(=O)N[C@@H]([C@H]2O[C@H](SC)[C@H](O)[C@@H](O)[C@H]2O)[C@@H](C)O)N(C)C1 [Lincomycin hydrochloride],neuronal differentiation score,ReNCell VM [1]; library: Prestwick,inactive: 0
same,dopaminergic neuron differentiation score,ReNCell VM [2]; library: Prestwick,inactive: 0
C#C[C@]1(O)CC[C@H]2[C@@H]3CCC4=CC(=O)CC[C@@H]4[C@H]3CC[C@@]21CC,neuronal differentiation score,ReNCell VM [1]; library: Spectrum,inactive: 0
same,dopaminergic neuron differentiation score,ReNCell VM [2]; library: Spectrum,inactive: 0
Cc1cc2nc3c(=O)[nH]c(=O)nc-3n(C[C@H](O)[C@H](O)[C@H](O)CO)c2cc1C,neuronal differentiation score,ReNCell VM [1]; library: Spectrum,inactive: 0
same,dopaminergic neuron differentiation score,ReNCell VM [2]; library: Spectrum,inactive: 0
Clc1ccc(CCC(Cn2ccnc2)Sc2c(Cl)cccc2Cl)cc1 (stereo not given),neuronal differentiation score,ReNCell VM [1]; library: Spectrum,inactive: 1
same,dopaminergic neuron differentiation score,ReNCell VM [2]; library: Spectrum,inactive: 0
C=CCc1ccc(O)c(OC)c1,neuronal differentiation score,ReNCell VM [1]; library: Spectrum,inactive: 0
same,dopaminergic neuron differentiation score,ReNCell VM [2]; library: Spectrum,inactive: 0
CCCCCCC[N+](CC)(CC)CCCCc1ccc(Cl)cc1 [Clofilium tosylate],neuronal differentiation score,ReNCell VM [1]; library: Prestwick,inactive: 0
same,dopaminergic neuron differentiation score,ReNCell VM [2]; library: Prestwick,inactive: 0
CN1CCN(C(=O)c2nc3ccc(Cl)cc3[nH]2)CC1,neuronal differentiation score,ReNCell VM [1]; library: Tocriscreen,inactive: 0
same,dopaminergic neuron differentiation score,ReNCell VM [2]; library: Tocriscreen,inactive: 0
N#CC(c1ccc(Cl)cc1)c1c(Cl)cc(-n2ncc(=O)[nH]c2=O)cc1Cl (stereo not given),neuronal differentiation score,ReNCell VM [1]; library: Spectrum,inactive: 0
same,dopaminergic neuron differentiation score,ReNCell VM [2]; library: Spectrum,inactive: 0
CCCCCCCCCCCCCCCC[N+](C)(C)CCN(Cc1ccc(OC)cc1)c1ncccn1 [Thonzonium bromide],neuronal differentiation score,ReNCell VM [1]; library: Prestwick,inactive: 0
same,dopaminergic neuron differentiation score,ReNCell VM [2]; library: Prestwick,inactive: 0
COC(=O)/C(=C1/OC(=O)C(c2ccccc2)=C1O)c1ccccc1 [vulpinic acid],neuronal differentiation score,ReNCell VM [1]; library: Natural,inactive: 0
same,dopaminergic neuron differentiation score,ReNCell VM [2]; library: Natural,inactive: 0
O=C(O)c1cc(O)c2c(c1)[C@@H]([C@H]1c3cc(C(=O)O)cc(O)c3C(=O)c3c(O[C@@H]4O[C@H](CO)[C@@H](O)[C@H](O)[C@H]4O)cccc31)c1cccc(O[C@@H]3O[C@H](CO)[C@@H](O)[C@H](O)[C@H]3O)c1C2=O,neuronal differentiation score,ReNCell VM [1]; library: Spectrum,inactive: 0
same,dopaminergic neuron differentiation score,ReNCell VM [2]; library: Spectrum,inactive: 0
O=C(O)c1cc(O)c(O)c(O)c1,neuronal differentiation score,ReNCell VM [1]; library: Spectrum,inactive: 0
same,dopaminergic neuron differentiation score,ReNCell VM [2]; library: Spectrum,inactive: 0
CC(C)NCC(O)c1ccc(O)c(O)c1 (stereo not given) [Isoproterenol hydrochloride],neuronal differentiation score,ReNCell VM [1]; library: Tocriscreen,active: 2
same,dopaminergic neuron differentiation score,ReNCell VM [2]; library: Tocriscreen,inactive: 0
CC(Oc1c(Cl)cccc1Cl)C1=NCCN1 (stereo not given),neuronal differentiation score,ReNCell VM [1]; library: Spectrum,inactive: 0
same,dopaminergic neuron differentiation score,ReNCell VM [2]; library: Spectrum,inactive: 0

# 2 neighbouring entries already listed, quoted:
smiles,measurement,setting,value
O=C(/C=C/c1ccc(O)c(O)c1)O[C@@H]1C[C@](O)(C(=O)O)C[C@@H](O)[C@H]1O [Chlorogenic acid],dopaminergic neuron differentiation score,ReNCell VM [2]; library: Phytochemical,inactive: 0
CC(=O)OCC(=O)[C@@]1(O)CC[C@H]2[C@@H]3CCC4=CC(=O)CC[C@]4(C)[C@H]3[C@@H](O)C[C@@]21C [Cortisol acetate],neuronal differentiation score,ReNCell VM [1]; library: Prestwick,inactive: 0
